Test results reported in article PMC8160739, “Mycobacterium tuberculosis Binds Human Serum Amyloid A, and the Interaction Modulates the Colonization of Human Macrophages and the Transcriptional Response of the Pathogen” (Cells, 2021).

By UniProt entry, the sequences of proteins in these tests, tags left out.
UniProt P9WJD9: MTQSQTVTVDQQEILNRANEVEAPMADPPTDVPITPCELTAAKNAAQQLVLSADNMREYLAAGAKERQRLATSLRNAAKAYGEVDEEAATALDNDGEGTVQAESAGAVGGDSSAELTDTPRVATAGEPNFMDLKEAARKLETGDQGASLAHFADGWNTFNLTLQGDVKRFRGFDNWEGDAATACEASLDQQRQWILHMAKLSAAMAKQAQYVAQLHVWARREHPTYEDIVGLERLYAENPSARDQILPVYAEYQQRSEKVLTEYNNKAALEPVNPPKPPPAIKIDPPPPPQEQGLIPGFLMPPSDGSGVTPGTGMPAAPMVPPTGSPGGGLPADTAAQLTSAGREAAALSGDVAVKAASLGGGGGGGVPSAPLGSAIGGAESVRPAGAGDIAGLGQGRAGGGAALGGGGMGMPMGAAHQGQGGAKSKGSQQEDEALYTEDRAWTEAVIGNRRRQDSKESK
UniProt P9WG79: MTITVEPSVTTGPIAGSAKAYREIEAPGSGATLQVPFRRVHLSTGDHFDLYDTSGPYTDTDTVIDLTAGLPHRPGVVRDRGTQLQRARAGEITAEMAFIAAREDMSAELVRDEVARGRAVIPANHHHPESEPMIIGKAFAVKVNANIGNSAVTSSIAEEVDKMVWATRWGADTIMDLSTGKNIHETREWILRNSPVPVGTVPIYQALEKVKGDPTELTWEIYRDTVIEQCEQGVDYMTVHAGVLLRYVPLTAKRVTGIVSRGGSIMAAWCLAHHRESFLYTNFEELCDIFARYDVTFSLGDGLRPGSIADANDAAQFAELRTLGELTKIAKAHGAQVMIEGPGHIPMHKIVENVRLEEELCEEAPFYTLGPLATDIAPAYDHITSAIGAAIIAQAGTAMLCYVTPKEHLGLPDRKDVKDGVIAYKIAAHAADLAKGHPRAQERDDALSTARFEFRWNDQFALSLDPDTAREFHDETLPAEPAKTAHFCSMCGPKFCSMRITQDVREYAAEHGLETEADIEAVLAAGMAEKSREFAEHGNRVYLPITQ

Target: T1, recombinant human serum amyloid A (SAA1) (human) (UniProt P0DJI8)
T1 sequence: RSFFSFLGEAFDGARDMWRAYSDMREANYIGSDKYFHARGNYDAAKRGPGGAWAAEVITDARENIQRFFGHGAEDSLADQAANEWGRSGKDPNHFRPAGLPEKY
Assay: affinity purification with mass spectrometry; only the target purified

## EspB (Rv3881c; secreted ESX-1 substrate protein B, EspB), native, from Mtb whole-cell extract (from UniProt P9WJD9 1-460)
  binding: binds

## ThiC (Rv0423c; probable thiamine biosynthesis protein ThiC), native, from Mtb whole-cell extract (from UniProt P9WG79 1-547)
  binding: binds

B1: ABC transporter (Rv2477c (protein, UniProt P9WQK3 1-558)
chain: MAEFIYTMKKVRKAHGDKVILDDVTLSFYPGAKIGVVGPNGAGKSSVLRIMAGLDKPNNGDAFLATGATVGILQQEPPLNEDKTVRGNVEEGMGDIKIKLDRFNEVAELMATDYTDELMEEMGRLQEELDHADAWDLDAQLEQAMDALRCPPADEPVTNLSGGERRRVALCKLLLSKPDLLLLDEPTNHLDAESVQWLEQHLASYPGAILAVTHDRYFLDNVAEWILELDRGRAYPYEGNYSTYLEKKAERLAVQGRKDAKLQKRLTEELAWVRSGAKARQAKSKARLQRYEEMAAEAEKTRKLDFEEIQIPVGPRLGNVVVEVDHLDKGYDGRALIKDLSFSLPRNGIVGVIGPNGVGKTTLFKTIVGLETPDSGSVKVGETVKLSYVDQARAGIDPRKTVWEVVSDGLDYIQVGQTEVPSRAYVSAFGFKGPDQQKPAGVLSGGERNRLNLALTLKQGGNLILLDEPTNDLDVETLGSLENALLNFPGCAVVISHDRWFLDRTCTHILAWEGDDDNEAKWFWFEGNFGAYEENKVERLGVDAARPHRVTHRKLTRG
  binding: binds

B2: TB 18.6 (Rv2140c; conserved protein TB18.6), native, from Mtb whole-cell extract (protein, UniProt P9WFN1 1-176)
chain: MTTSPDPYAALPKLPSFSLTSTSITDGQPLATPQVSGIMGAGGADASPQLRWSGFPSETRSFAVTVYDPDAPTLSGFWHWAVANLPANVTELPEGVGDGRELPGGALTLVNDAGMRRYVGAAPPPGHGVHRYYVAVHAVKVEKLDLPEDASPAYLGFNLFQHAIARAVIFGTYEQR
  binding: binds

Results are given in words; binding and its absence hold for the method and conditions named. In cells and extracts the contact can be indirect. These calls come from enrichment with a bait or labelling near it, and not all partners need be listed.
